Test system: Plasmodium falciparum Dd2 (chloroquine-resistant)
Assay: In vitro drug susceptibility assay, Dd2 strain (flow cytometry, SYBR Green I / MitoTracker Deep Red)
Assay type: cell-based
Conditions: CQR Dd2 versus CQS 3D7
Protocol: The cultures were maintained under an atmosphere of 5% CO2, 5% O2, and 90% N2. Fresh complete medium was provided daily, and rapid-stained (Panotico) blood smears were examined.
To evaluate the effects of synthetic compounds on the intraerythrocytic development of P. falciparum, we analyzed parasitemia by flow cytometry with 0.3% initial parasitemia and 1% hematocrit in the assay. Plates were incubated with the compounds at concentrations ranging from 0.10 to 100 µM for 72 h. Dual staining with SYBR Green I (SG-I) (Invitrogen, Waltham, MA, USA) and MitoTracker Deep Red (MT-Red) (Invitrogen) were used to label nucleic acids and mitochondria, respectively. Approximately 10,000 cells were counted by an Accuri C6 (Becton Dickinson, San Jose, CA, USA) and analyzed by FlowJo 5 software. Parasitemia was determined from the analysis of dot plots (side scatter versus fluorescence).
We determined the susceptibility of P. falciparum to the indole compounds and investigated whether CQR parasites responded differently to the compounds. […] We determined the IC50 values for each compound by analyzing viable and non-viable parasites after compound treatment, represented in dot plots (Figure 1H).

**Q.** With COC(=O)Cc1c(SCCCCCCCCCCC(=O)O)[nH]c2ccccc12 [Compound 20] as the compound, how does the resistant indexes read?
**A.** 0.30

Reference: article PMC9138683, “Decoding the Role of Melatonin Structure on Plasmodium falciparum Human Malaria Parasites Synchronization Using 2-Sulfenylindoles Derivatives” (Biomolecules, 2022)
